Reference: PubChem BioAssay AID1259300 (Sanger Institute, 2017)

Test: 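siRNA screen of kinases and common colorectal cancer mutant genes, alone or with drugs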 (primary screen)
System: HCT15 colorectal cancer cells
Reagents: siRNA pool against human genes
Conditions: anchor drug or DMSO vehicle added 24 h after seeding: BYL719 1 µM, cetuximab 5 µg/ml, trametinib 10 nM; drug doses chosen to barely affect viability alone
Measurement: 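Replicate-mean viability relative to non-targeting pool control with robust z-score for knock-down without drug; per-drug synergy scores for BYL719 (1 µM), cetuximab (5 µg/ml), trametinib (10 nM)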
Scale: viability z-score, siRNA alone: higher = more viable cells after knock-down
Hit rule: 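Called active (essential) if viability z-score with knock-down alone falls below -3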
Meaning of the calls: active = essential: knock-down alone lowers viability (z below -3); inactive = no strong viability loss with knock-down alone
The whole screen tested 794 reagents; below is a random part of them. 18 of them (2.3%) were called active. 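Calls rest on knock-down alone, not drug synergy; depositor treated synergy scores above 0.15 as synergistic; drug doses alone had little viability effect.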 Unmarked entries are inactive. Further read-outs or replicates are left out here. Not given: the amount of reagent, the time to read-out.

N4BP2 — viability z-score, siRNA alone: 0.625
CALM1 — viability z-score, siRNA alone: 0.291
FYN — viability z-score, siRNA alone: -0.0452
SF3B1 — viability z-score, siRNA alone: -8.13 (active)
CDK8 — viability z-score, siRNA alone: 0.625
GATA3 — viability z-score, siRNA alone: 0.172
ITK — viability z-score, siRNA alone: -0.493
DGKD — viability z-score, siRNA alone: -0.131
FASTK — viability z-score, siRNA alone: -0.834
NUP62 — viability z-score, siRNA alone: -1.44
MAP2K3 — viability z-score, siRNA alone: -0.212
ETNK1 — viability z-score, siRNA alone: 0.625

Taken from above.
For “viability z-score, siRNA alone”, CDK8 shows 0.625
Under “viability z-score, siRNA alone”, NUP62 has -1.44
